Assay results reported in article PMC9035508.
These are yes or no findings as the source states them, for the method shown.

Sequences of proteins named here, by UniProt entry; tags and fusion partners are left off. Residues count along the entry.
UniProt Q9HCN6, residues 21-267: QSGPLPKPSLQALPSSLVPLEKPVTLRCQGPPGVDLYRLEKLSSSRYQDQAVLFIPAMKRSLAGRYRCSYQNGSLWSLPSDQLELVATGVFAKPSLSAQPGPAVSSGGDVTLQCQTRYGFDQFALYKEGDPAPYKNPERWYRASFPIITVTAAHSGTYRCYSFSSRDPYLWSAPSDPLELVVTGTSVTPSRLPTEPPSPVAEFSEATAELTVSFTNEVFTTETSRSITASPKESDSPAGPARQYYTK

What was measured:
[1] = molecular target: T1, FXIII B-subunit (rh-FXIIIB2), recombinant (human) (UniProt P05160); test: ELISA; FXIII proteins or collagen type III coated on wells at 10 µg/mL (overnight, 4°C), blocked with 0.5% BSA; GPVI-Fc2 added at varied concentrations; bound GPVI detected by 1G5/IRDye 800CW anti-mouse antibody; KD from binding curves (Figure 1B); both purified
T1 sequence: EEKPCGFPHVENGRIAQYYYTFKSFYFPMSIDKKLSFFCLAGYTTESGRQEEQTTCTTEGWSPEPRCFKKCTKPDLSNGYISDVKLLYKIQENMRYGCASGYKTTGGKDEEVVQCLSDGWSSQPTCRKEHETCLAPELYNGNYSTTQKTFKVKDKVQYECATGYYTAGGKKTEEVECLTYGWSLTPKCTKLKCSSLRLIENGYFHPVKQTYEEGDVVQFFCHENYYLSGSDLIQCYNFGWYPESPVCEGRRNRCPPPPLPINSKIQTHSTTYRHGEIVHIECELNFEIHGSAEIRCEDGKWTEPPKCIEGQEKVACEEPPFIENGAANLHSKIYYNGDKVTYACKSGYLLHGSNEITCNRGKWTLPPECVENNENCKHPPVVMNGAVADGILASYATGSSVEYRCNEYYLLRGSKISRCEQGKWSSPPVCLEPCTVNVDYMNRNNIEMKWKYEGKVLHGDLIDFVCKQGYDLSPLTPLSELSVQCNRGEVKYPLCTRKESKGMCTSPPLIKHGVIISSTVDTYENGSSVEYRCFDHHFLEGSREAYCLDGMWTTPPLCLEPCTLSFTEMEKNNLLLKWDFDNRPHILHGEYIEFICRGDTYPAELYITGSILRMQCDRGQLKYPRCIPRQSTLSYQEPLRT

[2] = molecular target: T1, FXIII B-subunit (rh-FXIIIB2), recombinant (human); test: ELISA; FXIII proteins or collagen type III coated at 10 µg/mL; GPVI-Fc2 or GPVIex at a fixed 50 µg/mL; bound GPVI detected by 1G5/IRDye 800CW anti-mouse antibody (Figure 1A, 1C); both purified

binding [1]	binding [2]	Substance
no binding	no binding (tested: 50 µg/mL)	GPVI-Fc2 (recombinant human GPVI extracellular domain, dimer) (from UniProt Q9HCN6 21-267) (Fc fusion)
–	no binding (tested: 50 µg/mL)	GPVIex (recombinant human GPVI extracellular domain, monomer) (from UniProt Q9HCN6 21-267) (domain or fragment)
